No constants are given. Whether binding was seen depends on the method and setting. Some results given as binding are weak or reduced against the parent protein; the word gives no strength.
Columns and labels:
[1] = molecular target: human PTK7 protein (extracellular sequence of human PTK7 with C-terminal 6×His tag) (human) (UniProt Q13308); test: ELISA, coated human PTK7-His protein
[2] = molecular target: human PTK7 on cells (tumor cells endogenously expressing PTK7; CHO-hPTK7, CHO-S-hPTK7 and 293T-hPTK7 overexpression cells) (human) (UniProt Q13308); test: flow cytometry on H1299 cells, PE-labelled secondary antibody

The chains behind the UniProt entries cited, without tags or fusion partners. Where a name states a change or a piece, a line headed by the entry shows the natural chain unless it says otherwise. A line that says so, or that is headed by a name, gives the form on record, which may keep a tag or linker. Residues count along the entry.
UniProt Q13308, residues 31-1070: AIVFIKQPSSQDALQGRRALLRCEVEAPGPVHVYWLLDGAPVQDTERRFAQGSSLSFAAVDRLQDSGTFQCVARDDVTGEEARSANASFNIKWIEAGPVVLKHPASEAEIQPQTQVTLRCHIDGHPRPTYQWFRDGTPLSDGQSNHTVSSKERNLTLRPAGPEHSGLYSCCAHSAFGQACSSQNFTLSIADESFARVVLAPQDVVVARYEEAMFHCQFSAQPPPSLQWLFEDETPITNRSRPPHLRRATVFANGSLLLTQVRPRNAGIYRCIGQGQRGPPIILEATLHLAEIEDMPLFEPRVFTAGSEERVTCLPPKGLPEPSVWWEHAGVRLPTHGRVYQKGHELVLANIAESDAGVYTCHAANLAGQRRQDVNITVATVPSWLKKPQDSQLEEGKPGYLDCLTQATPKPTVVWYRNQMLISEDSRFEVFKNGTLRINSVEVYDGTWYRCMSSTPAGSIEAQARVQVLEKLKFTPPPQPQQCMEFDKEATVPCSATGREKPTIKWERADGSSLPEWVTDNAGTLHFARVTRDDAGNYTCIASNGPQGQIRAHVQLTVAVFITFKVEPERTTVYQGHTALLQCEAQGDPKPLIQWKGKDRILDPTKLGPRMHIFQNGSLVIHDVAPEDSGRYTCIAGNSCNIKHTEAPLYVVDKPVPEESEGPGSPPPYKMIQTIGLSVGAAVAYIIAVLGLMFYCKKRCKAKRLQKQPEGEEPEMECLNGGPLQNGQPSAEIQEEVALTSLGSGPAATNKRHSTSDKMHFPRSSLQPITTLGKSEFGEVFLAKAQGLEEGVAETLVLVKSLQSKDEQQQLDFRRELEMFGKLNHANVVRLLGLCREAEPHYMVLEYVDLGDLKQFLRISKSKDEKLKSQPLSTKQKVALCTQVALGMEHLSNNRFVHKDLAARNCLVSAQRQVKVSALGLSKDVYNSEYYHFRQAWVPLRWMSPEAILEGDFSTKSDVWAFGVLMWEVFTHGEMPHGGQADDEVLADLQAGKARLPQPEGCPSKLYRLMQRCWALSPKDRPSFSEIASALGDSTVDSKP
human PTK7 protein (extracellular sequence of human PTK7 with C-terminal 6×His tag) (Q13308, form named): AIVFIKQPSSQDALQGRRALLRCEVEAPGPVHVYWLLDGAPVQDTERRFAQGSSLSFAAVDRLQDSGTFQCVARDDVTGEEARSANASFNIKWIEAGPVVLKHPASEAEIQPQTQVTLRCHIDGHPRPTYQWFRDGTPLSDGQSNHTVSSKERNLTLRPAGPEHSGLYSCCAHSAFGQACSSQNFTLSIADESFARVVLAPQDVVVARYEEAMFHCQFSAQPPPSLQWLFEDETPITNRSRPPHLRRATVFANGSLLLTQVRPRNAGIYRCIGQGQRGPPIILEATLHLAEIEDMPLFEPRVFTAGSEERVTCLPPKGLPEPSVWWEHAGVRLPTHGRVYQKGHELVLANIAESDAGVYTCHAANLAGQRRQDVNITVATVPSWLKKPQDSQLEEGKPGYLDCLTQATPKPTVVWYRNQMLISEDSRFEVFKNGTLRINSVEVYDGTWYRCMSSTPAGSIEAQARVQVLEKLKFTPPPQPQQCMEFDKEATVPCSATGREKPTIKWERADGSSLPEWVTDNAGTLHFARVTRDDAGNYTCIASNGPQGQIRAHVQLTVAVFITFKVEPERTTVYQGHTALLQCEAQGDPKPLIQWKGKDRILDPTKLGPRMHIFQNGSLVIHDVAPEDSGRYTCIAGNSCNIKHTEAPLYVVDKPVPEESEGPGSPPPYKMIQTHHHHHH

Row | Binder | binding [1] | binding [2]
1 | 101A6-CH (anti-human PTK7 chimeric antibody of 101A6) (antibody, human IgG1, kappa, V domains shown) VH: EVKLVESGGGLVQPGGSLSLSCAASGFTFTDYYLSWVRQPPGKALEWLALIRNKANGYTTEYSASVKGRFTISRDSSQSILYLQMDALRAEDSATYYCARDTLAAYWGQGTSVTVSS VL: DIVMTQSHKFMSTSVGDRVSFTCKASQDVGSAVIWYQQKPGQSPKLLIYWASTRHTGVPDRFTGSGSGTDFTLTISNVQSEDLADYFCQQYSSYPLTFGAGTKLEIKR | binds | binds
2 | 64A10-CH (anti-human PTK7 chimeric antibody of 64A10) (antibody, human IgG1, kappa, V domains shown) VH: QVQLKESGPVLVAPSQSLSITCTVSGFSLTSYGVYWVRQPPGKGPEWLGVIWTSGNTNYNSALMSRLSISKDNSKSQVFLKMNSLQTDDTAMYYCVKHDGGNYVGVMNYWGQGTSVTVSS VL: DIQMTQSPATLSVTPGDRVSLSCRASQSISDYLHWYQQKSQESPRLLIKYASQSISGIPSRFSGSGSGSDFTLSINSVEPEDVGVYYCQNGHSFPPTFGGGTKLEIKR | binds | binds
